Results are given in words; binding and its absence hold for the method and conditions named. Binding seen in cells or lysates may run through a third protein. Some results given as binding are weak or reduced against the parent protein; the word gives no strength.

For assay [1], the target named is T1, PTRF (polymerase I transcription and release factor) (mouse (endogenous in adipocytes)) (UniProt O54724).
T1 sequence: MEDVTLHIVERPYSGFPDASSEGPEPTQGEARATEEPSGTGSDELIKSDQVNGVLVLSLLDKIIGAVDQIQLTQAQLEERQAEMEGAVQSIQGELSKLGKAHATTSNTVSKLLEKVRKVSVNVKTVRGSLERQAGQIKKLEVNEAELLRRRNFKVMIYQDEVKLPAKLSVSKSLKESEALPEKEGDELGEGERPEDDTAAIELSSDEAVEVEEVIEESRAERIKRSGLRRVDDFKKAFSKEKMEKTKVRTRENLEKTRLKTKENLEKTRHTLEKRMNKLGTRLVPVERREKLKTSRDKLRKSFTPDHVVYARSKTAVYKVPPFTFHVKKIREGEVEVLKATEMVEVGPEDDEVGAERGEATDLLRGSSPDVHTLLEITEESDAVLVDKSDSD
As to the kind of experiment: co-IP; immunoprecipitation with PTRF antibody from whole cell lysates (1% Triton X-100) of isolated mouse primary adipocytes stimulated by insulin for 0-60 min; SDS-PAGE and blots.

For assay [2], the target named is T1, PTRF (polymerase I transcription and release factor) (mouse (endogenous in adipocytes)). The assay can be described thus: co-IP; immunoprecipitation with PTRF antibody from sonicated nuclear fraction lysate (1% Triton X-100) of basal and insulin-stimulated adipocytes; blots for TTF1 and PTRF; PTRF null (KO) adipocytes as negative control.

B1: SDPR (Serum deprivation response protein, Cavin-2) (protein, UniProt Q63918 1-418)
chain: MGEDAAQAEKFQHPNTDMLQEKPSSPSPMPSSTPSPSLNLGSTEEAIRDNSQVNAVTVHTLLDKLVNMLDAVRENQHNMEQRQINLEGSVKGIQNDLTKLSKYQASTSNTVSKLLEKSRKVSAHTRAVRERLERQCVQVKRLENNHAQLLRRNHFKVLIFQEESEIPASVFVKEPVPSAAEGKEELADENKSLEETLHNVDLSSDDELPRDEEALEDSAEEKMEESRAEKIKRSSLKKVDSLKKAFSRQNIEKKMNKLGTKIVSVERREKIKKSLTPNHQKASSGKSSPFKVSPLSFGRKKVREGESSVENETKLEDQMQEDREEGSFTEGLSEASLPSGLMEGSAEDAEKSARRGNNSAVGSNADLTIEEDEEEEPVALQQAQQVRYESGYMLNSEEMEEPSEKQVQPAVLHVDQTA
For the molecule B1, in assay [1], the binding entry was “binds”.

B2: TTF1 (polymerase I transcription termination factor 1) (protein, UniProt Q62187 1-859)
chain: MKGGTSKFKTHTETLYKKKKWSSVSEKRPQKCPSQCLESKQPQVSVLGKRRRASQTPAQETLESEWPQKAKRKKRRREPQTPAQETLESEWPQKAKKKKRRGEPQTPTQESLESEQPPVSLLGKRRRESQTPAQENSESEQPRKAKRRRKKRKGSQQPTSSLLKTPETFLKAKKTTSAHKKKKNSVLEVDMETGIILVDKENMENLLETSRKDVDIVYVDMSKGQRSAKVRETGELPAAKPQEHGCRELLGDVRSRKKQKHLQKVAPWDVVQGSQPESISLPPSEPLSSEDLEGKSTEAAVFCKKKSKKNVFRSQELEPIPDSLDDSETISERLDSTHHGGAVGAGEECESTKESHSIKKKSKKKKHKSVALATSSDSASVTDSKAKNALVDSSEGSGAVREEDVDHRPAEAEAQACSTEKHREAMQRLEPTHEEESNSESASNSAARHISEDRRESDDSDVDLGSAVRQLREFIPDIQERAATTIRRMYRDDLGRFKEFKAQGVAIRFGKFSAKENKQIEKNVQDFLSLTGIESADKLLYTDRYPEEKTLITNLKRKHAFRLHIGKGIARPWKLVYYRAKKIFDVNNYKGRYNEEDTKKLKAYHSLHGNDWKKIGAMVARSSLSVALKFSQIGGTRNQGAWSKAETQRLIKAVEDVILKKMSPQELRELDSKLQEDPEGRLSIVREKLYKGISWVEVEARVETRNWMQCKSKWTEILTKRMTHGGFVYRGVNALQAKITLIERLYELNVNDANEIDWEDLASAIGDVPPPFVQAKFYKLKAACVPFWQKKTFPEIIDYLYKNSLPLLKEKLDKKMKKKDGQIQTPAAPKQDFLFKDIFHCDDDSDEGSPEEPSASDVQ
Regarding B2, the binding result in assay [2] is “binds”.

The values are drawn from PMC4987143.
